Results deposited as PubChem BioAssay AID652272 (Drosophila RNAi Screening Center, 2013).

Assay: 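Genes whose knock-down decreases or increases Hedgehog reporter output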 (primary screen)
Cell system: Drosophila clone 8 (Cl8) cells
Reagent: long dsRNA against Drosophila genes
Measurement: 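Firefly light from a Hedgehog-responsive ptc promoter reporter and Renilla reference light, both read on a plate reader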
Direction: firefly Hh reporter signal: higher = more ptc reporter light; Renilla reference signal: higher = more Renilla control light
Rule for the call: 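Called a hit if the two-replicate mean z-score lies below -2 or above +3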
Calls: active = hit: reporter lowered or raised; inactive = not a hit
In all, the deposit lists about 21,000 reagents; below is a random part of those with a known target gene and a result. Of all reagents, 503 (2.4%) were called active. 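Raw plate light values, not normalised; calls rest on replicate z-scores that were not deposited; hits include reporter decreases as well as increases.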 A plus sign joins genes that one reagent is predicted to hit. The record does not give: the amount of reagent, the time to read-out.

The opening 6 entries, ahead of the listing:
target	amplicon	firefly Hh reporter signal, replicate 1	firefly Hh reporter signal, replicate 2	firefly Hh reporter signal, replicate 3	Renilla reference signal, replicate 1	Renilla reference signal, replicate 2	Call
Tl	DRSC16885	1.25e5	90059		2880	2514	inactive
CG14669	DRSC12065	49728			1916		inactive
CG14669	DRSC12067	1.66e5			4187		inactive
CG14669	DRSC12068	2.38e5			5672		inactive
CG14669	DRSC12255	98461	1.52e5		4201	4322	inactive
CG8043	DRSC16368	66130	94314		1460	2710	inactive

Results, repeating the preview:
target	amplicon	firefly Hh reporter signal, replicate 1	firefly Hh reporter signal, replicate 2	firefly Hh reporter signal, replicate 3	Renilla reference signal, replicate 1	Renilla reference signal, replicate 2	Call
Tl	DRSC16885	1.25e5	90059		2880	2514	inactive
CG14669	DRSC12065	49728			1916		inactive
CG14669	DRSC12067	1.66e5			4187		inactive
CG14669	DRSC12068	2.38e5			5672		inactive
CG14669	DRSC12255	98461	1.52e5		4201	4322	inactive
CG8043	DRSC16368	66130	94314		1460	2710	inactive
Hpr1	DRSC12296	84507	95500		4960	4405	inactive
mesh	DRSC14472	5.12e5	5.18e5	87864	3803	3008	inactive
mesh	DRSC15098	1.47e5	1.58e5		5280	4199	inactive
mesh	DRSC15099	84661	1.07e5		3268	3250	inactive
Or92a	DRSC16771	5.11e5	93306		28357	2509	inactive
AsnS	DRSC11468	2.56e5			6551		inactive
CG11322	DRSC02142	1.68e5	79826		4167	8176	inactive
nmdyn-D7	DRSC17016	64882	96644		1512	2752	inactive
CG11327	DRSC02146	82380	62730		2266	5623	inactive
e	DRSC16936	88200	79069		3379	3057	inactive
Fpps	DRSC07429	62418	54359		2017	2162	inactive
CG1116	DRSC12166	88837	1.11e5		3402	3120	inactive
CG30419	DRSC04208	1.24e5	5.61e5	85961	3387	33510	inactive
CG30419	DRSC04209	1.49e5	4.36e5	1.14e5	4337	27283	inactive
VhaM9.7-d	DRSC15028	47796	54937		1185	1691	inactive
Lgr4	DRSC18969	4.13e5	1.38e5		22747	3232	inactive
Lgr4	DRSC18970	3.91e5	2.51e5		23162	5552	inactive
Lgr4	DRSC19884	73200	2.63e5		2183	9431	inactive
CG33255 (retired record) + hpRNA:CR32205 + CR42838	DRSC09611	1.92e5			5195		inactive
CG9500	DRSC03237	1.21e5	33299		2784	2944	inactive
128up	DRSC05027	49824	60231		1963	2347	inactive
RpS28b	DRSC18258	30924	23521		1467	1114	active
CG10029	DRSC12498	1.38e5	1.63e5		5192	4967	inactive
CG44836	DRSC09915	79019			4359	2344	inactive
vlc	DRSC04922	94448	72353		2067	6600	inactive
CG4592	DRSC02761	1.82e5	93428		6297	4203	inactive
Cp7Fb	DRSC18034	75776	2.80e5		2387	10284	inactive
Nt5b	DRSC19976	1.91e5	94601		4278	2425	inactive
Nt5b	DRSC19977	99003	3.50e5		2580	13796	inactive
Nt5b	DRSC19978	80739	2.78e5		2371	10192	inactive
Dpy-30L2	DRSC08205	85085	63456		2710	4520	inactive
Pi3K92E	DRSC16788	1.07e5	60725		4779	2880	inactive
CG4669	DRSC10440	1.29e5	76668		4613	2779	inactive
CG15404	DRSC00418	1.09e5	45940		2749	4624	inactive
CG13326	DRSC06363	98218	42416		3780	1204	inactive
pxb	DRSC13110	47347	2.67e5		9618	5748	inactive
pxb	DRSC14996	1.22e5	1.52e5		2544	4233	inactive
pxb	DRSC14997	1.21e5	1.34e5		3924	3259	inactive
Cbl	DRSC10764	56829	54017		6316	3936	inactive
Cbl	DRSC11111	25133	39126		3073	2673	inactive
CG15800	DRSC04271	77044	58327		2164	5495	inactive
Spc25	DRSC14164	1.18e5	1.06e5		3477	2530	inactive
Cp7Fa	DRSC18032	68885	3.38e5		1914	12631	inactive
Cp7Fa	DRSC18033	50336	1.72e5		1728	8347	inactive
toc	DRSC00169	5.78e5	3.00e5		30757	11139	inactive
toc	DRSC00171	4.42e5	1.50e5		24423	6476	inactive
toc	DRSC00842	60312	63041		2898	2912	inactive
tacc	DRSC12019	2.11e5			4672		inactive
tacc	DRSC12388	1.74e5	1.07e5		5892	2905	inactive
Ir48c	DRSC06154	65947	77020		1786	5475	inactive
Desat2	DRSC15919	95805	1.39e5		2226	6704	inactive
